29 compounds from PubChem BioAssay AID330 (DTP/NCI, 2004) can be followed below.

The list shows only some results of the screen, not a fair sample: it is rich in T/C values a quarter to a half above the control, in often repeated tests (any T/C) and in doses without a T/C. Further doses and runs are listed elsewhere. T/C gives the treated animals as a percentage of the vehicle group. Some entries give survivors of the animals treated and no T/C: the source files T/C as zero there, which appears to mark a toxic dose or a test without result, not a measured value. Some survivor counts are full or nearly so, which does not show that the dose was tolerated: survival well below the control is almost never listed, so the zero probably covers shortened survival too. Survivors were counted at the toxicity check, usually on the fifth day, unless a day is given; later deaths do not show. Schedules are NCI's codes, taken here to give the interval after Q, in days (D) or hours (H), and the number of doses after X. Some molecules as drawn cover several salts, stereoisomers or complexes of the source; a dose is that of the sample tested. Some doses were run more than once; the results are listed from low to high. Where survival is the endpoint, this PubChem deposit counts one and a half times the control or more as active, and values a quarter to a half above the control carry no call in these data; other NCI protocols may use other cut-offs. Counts like (3×) give the number of equal values in this list.

For the experiment, the system named is P388 leukemia ip, CD2F1 mice, survival T/C. Kind of experiment: NCI In Vivo Anticancer Drug Screen. Data for tumor model P388 Leukemia (intraperitoneal) in CD2F1 (CDF1) mice. Particulars: T/C endpoint: median survival time, higher T/C = longer survival.
Where [1] appears, read: dose: 25.0 mg/kg/injection, schedule: Q01DX009 (ip), vehicle: saline with Tween-80.
Where [2] appears, read: dose: 200.0 mg/kg/injection, schedule: Q01DX009 (ip), vehicle: saline with Tween-80.
Where [3] appears, read: dose: 50.0 mg/kg/injection, schedule: Q01DX009 (ip), vehicle: saline with Tween-80.
Setting [4] is: dose: 100.0 mg/kg/injection, schedule: Q01DX009 (ip), vehicle: Klucel (hydroxypropylcellulose) (HPC).
Where [5] appears, read: dose: 200.0 mg/kg/injection, schedule: Q01DX009 (ip), vehicle: Klucel (hydroxypropylcellulose) (HPC).
Setting [6] is: dose: 200.0 mg/kg/injection, schedule: Q01DX005 (ip), vehicle: saline with Tween-80.
[7] abbreviates: dose: 50.0 mg/kg/injection, schedule: Q01DX009 (ip), vehicle: Klucel (hydroxypropylcellulose) (HPC).
[8] abbreviates: dose: 25.0 mg/kg/injection, schedule: Q01DX009 (ip), vehicle: saline.
Where [9] appears, read: dose: 50.0 mg/kg/injection, schedule: Q01DX009 (ip), vehicle: saline.
Setting [10] is: dose: 200.0 mg/kg/injection, schedule: Q01DX005 (ip), vehicle: Klucel (hydroxypropylcellulose) (HPC).
Setting [11] is: dose: 100.0 mg/kg/injection, schedule: Q01DX009 (ip), vehicle: saline.
Setting [12] is: dose: 200.0 mg/kg/injection, schedule: Q01DX009 (ip), vehicle: saline.
The mark [13] stands for this setting: dose: 100.0 mg/kg/injection, schedule: Q01DX005 (ip), vehicle: Klucel (hydroxypropylcellulose) (HPC).

For `NNc1ncnc2c1ccn2C1OC(CO)C(O)C1O` (configuration not stated), the T/C is 140 % of control (dose: 16.5 mg/kg/injection, schedule: Q01DX009 (ip), vehicle: saline with Tween-80); 130 and 131 % of control under setting [1].
In the case of `Cc1noc(NS(=O)(=O)c2ccc(N=Nc3cc(N=Nc4ccc(S(=O)(=O)Nc5onc(C)c5C)cc4)c4c(NC(=O)C(Cl)Cl)cccc4c3OC(=O)C(Cl)Cl)cc2)c1C` (tested in a mixture with another compound), under setting [2], the survivor count is 2 of 6 and 3 of 6.
Consider `C/C=C/C=C1/OC(C)=C(C(C)=O)C1=O`, for which the T/C (dose: 50.0 mg/kg/injection, schedule: Q01DX009 (ip), vehicle: saline + Tween-80 + alcohol) was 126 % of control and the T/C under setting [3] was 128 % of control. Further, the survivor count under setting [2] is recorded as 4 of 6.
Take `COC(=O)C(Br)CCCC(Br)C(=O)OC` (configuration not stated): the survivor count (dose: 400.0 mg/kg/injection, schedule: Q01DX009 (ip), vehicle: distilled water + Tween-80) is 1 of 6.
For the compound `CN=C(NC(C)C)c1ccc(NC(=O)c2ccc(C(=O)Nc3ccc(C(=NC)NC(C)C)cc3)cc2)cc1`, the T/C was 140 % of control (dose: 16.0 mg/kg/injection, schedule: Q01DX009 (ip), vehicle: saline); 127 % of control (dose: 42.2 mg/kg/injection, schedule: Q04DX003 (ip), vehicle: saline with Tween-80); 136 % of control (dose: 64.0 mg/kg/injection, schedule: Q04DX003 (ip), vehicle: saline with Tween-80).
Take `CC(C)NC(=O)OCc1c(COC(=O)NC(C)C)c(-c2ccc(Cl)c(Cl)c2)n2c1C[C@@H](O)C2`: the T/C (dose: 6.25 mg/kg/injection, schedule: Q01DX005 (ip), vehicle: Klucel (hydroxypropylcellulose) (HPC)) was 140 % of control; the T/C (dose: 10.0 mg/kg/injection, schedule: Q01DX005 (ip), vehicle: Klucel (hydroxypropylcellulose) (HPC)) was 129 % of control; the T/C (dose: 12.5 mg/kg/injection, schedule: Q01DX005 (ip), vehicle: Klucel (hydroxypropylcellulose) (HPC)) was 147 % of control; the T/C (dose: 20.0 mg/kg/injection, schedule: Q01DX005 (ip), vehicle: Klucel (hydroxypropylcellulose) (HPC)) is 134 % of control; the T/C (dose: 25.0 mg/kg/injection, schedule: Q01DX005 (ip), vehicle: Klucel (hydroxypropylcellulose) (HPC)) was 145 % of control; the T/C (dose: 40.0 mg/kg/injection, schedule: Q01DX005 (ip), vehicle: Klucel (hydroxypropylcellulose) (HPC)) was 136 % of control. Also, the T/C (dose: 80.0 mg/kg/injection, schedule: Q01DX005 (ip), vehicle: Klucel (hydroxypropylcellulose) (HPC)) was 149 % of control.
As to `CCCCN(CCCC)CC(O)c1cc(-c2ccc(Cl)cc2)nc(-c2ccc(Cl)cc2)c1` (configuration not stated), under setting [2], the survivor count is on record as 5 of 6.
In the case of `NC(=S)N/N=C/c1cn(-c2ccccc2[N+](=O)[O-])cn1`, the survivor count (dose: 400.0 mg/kg/injection, schedule: Q04DX003 (ip), vehicle: Klucel (hydroxypropylcellulose) (HPC)) is listed as 1 of 6.
In the case of `CCNSc1ccccc1`, the survivor count under setting [4] is 0 of 6 and the survivor count under setting [5] is on record as 0 of 6.
Regarding `Cc1ccccc1-n1c(=S)n(-c2ccc(Cl)cc2)c2nc3ccccc3nc1/c2=N/Nc1cc(Cl)ccc1Cl`, the survivor count under setting [6] is 0 of 6.
Regarding `CCOC(=O)Nc1nc2ccc([N+](=O)[O-])cc2s1`, the survivor count reads like this: under setting [7], 6 of 6; under setting [4], 6 of 6; under setting [5], 6 of 6.
Turning to `Cc1ccc(S(=O)(=O)OC2COC(OCc3ccccc3)C(OS(=O)(=O)c3ccc(C)cc3)C2O)cc1` (configuration not stated), the survivor count under setting [6] is listed as 6 of 6.
As to `CCCCCCCCCCCCCCCCCC(=O)N[C@@H](Cc1ccc(N(CCCl)CCCl)cc1)C(=O)NCCCCCC`, the T/C is, setting by setting: (dose: 8.47 mg/kg/injection, schedule: Q01DX009 (ip), vehicle: saline) 127 % of control; (dose: 16.94 mg/kg/injection, schedule: Q01DX009 (ip), vehicle: saline) 145 % of control.
As for `Cc1c(N)nc(C(CC(N)=O)NCC(N)C(N)=O)nc1C(=O)NC(C(=O)NC(C)C(O)C(C)C(=O)NC(C(=O)NCCc1nc(-c2nc(C(=O)NCCCNC(C)c3ccccc3)cs2)cs1)C(C)O)C(OC1OC(CO)C(O)C(O)C1OC1OC(CO)C(O)C(OC(N)=O)C1O)c1cnc[nH]1` (configuration not stated), the T/C (dose: 2.0 mg/kg/injection, schedule: Q01DX009 (ip), vehicle: water) is 127 % of control.
On to `CNCCCC1c2ccccc2C=Cc2ccccc21`, for which the survivor count is, setting by setting: under setting [8], 6 of 6; under setting [9], 5 of 6.
Turning to `CCCCC(CC)(CC(=N)C(C)(C)C)c1ccccc1` (configuration not stated), for the setting “dose: 400.0 mg/kg/injection, schedule: Q01DX009 (ip), vehicle: saline + alcohol”, the survivor count is on record as 3 of 6.
On to `CC[C@]12C=CCN3CC[C@@]4(c5ccc(OC)cc5N(C)[C@H]4[C@@](O)(C(=O)OC)[C@@H]1OC(C)=O)[C@@H]32`, for which the survivor count under setting [10] was 0 of 6.
`Clc1ccc(SSN2CCOCC2)cc1`: the survivor count runs as follows: under setting [9], 0 of 6; under setting [11], 0 of 6; under setting [12], 0 of 6.
`COC(=O)N(C)SN(C)C(=O)O/N=C(\SC)C(=O)N(C)C`: the survivor count (dose: 6.25 mg/kg/injection, schedule: Q01DX009 (ip), vehicle: saline) is listed as 0 of 6; the survivor count (dose: 12.5 mg/kg/injection, schedule: Q01DX009 (ip), vehicle: saline) was 0 of 6; the survivor count under setting [8] is recorded as 0 of 6; the survivor count under setting [9] was 0 of 6; the survivor count under setting [11] is reported as 0 of 6; the survivor count under setting [12] was 0 of 6.
In the case of `Nc1ccccc1SC1CC(=O)N(c2ccc(Br)c(Cl)c2)C1=O` (configuration not stated), the survivor count is 6 of 6 (dose: 6.25 mg/kg/injection, schedule: Q01DX005 (ip), vehicle: saline with Tween-80); 6 of 6 (dose: 12.5 mg/kg/injection, schedule: Q01DX005 (ip), vehicle: saline with Tween-80); 6 of 6 (dose: 25.0 mg/kg/injection, schedule: Q01DX005 (ip), vehicle: saline with Tween-80); 6 of 6 (dose: 50.0 mg/kg/injection, schedule: Q01DX005 (ip), vehicle: saline with Tween-80); 6 of 6 (dose: 100.0 mg/kg/injection, schedule: Q01DX005 (ip), vehicle: saline with Tween-80); 6 of 6 under setting [6].
Regarding `CC(=O)NCC(C)c1ccccc1` (configuration not stated), the survivor count under setting [1] is given as 6 of 6. For the same compound, the T/C is 94, 101 (2×), 105 % of control under setting [3]; 99, 100, 105, 141 % of control (dose: 100.0 mg/kg/injection, schedule: Q01DX009 (ip), vehicle: saline with Tween-80); 87, 99, 105, 107 % of control under setting [2].
Regarding `Nc1cc(Cl)c(N(CCO)C2=NCCN2)c(Cl)c1`, the survivor count by setting is: under setting [13], 0 of 5; under setting [10], 0 of 5.
Consider `[Cl][Pd][Cl].[NH-]C(CC(N)=O)C(=O)O` (configuration not stated), for which the survivor count runs as follows: under setting [13], 3 of 6; under setting [10], 3 of 6.
On to `O=c1[nH]c(=O)c2sc3ncccc3c2[nH]1`, for which the survivor count under setting [9] is recorded as 0 of 6, the survivor count under setting [11] is listed as 0 of 6 and the survivor count under setting [12] is 0 of 6.
As to `CC(=C\c1ccc(Cl)c(Cl)c1)/C(C)=N/NC(N)=Nc1ccccc1`, for the setting “dose: 100.0 mg/kg/injection, schedule: Q04DX002 (ip), vehicle: saline with Tween-80”, the survivor count is 1 of 6.
For the compound `O=C(O)c1ccc(N=Nc2ccc(N(CCCl)CCCl)cc2C(=O)O)cc1`, the T/C (dose: 200.0 mg/kg/injection, schedule: Q01DX001 (ip), vehicle: Klucel (hydroxypropylcellulose) (HPC)) was 125 % of control.
Turning to `OC1C(CCl)OC(OC2(CCl)OC(CCl)C(O)C2O)C(O)C1O` (configuration not stated), the survivor count reads like this: under setting [7], 6 of 6; under setting [4], 6 of 6; under setting [5], 6 of 6.
With `CCN(CC)Cc1c(C)[nH]c2ccccc2c1=O`, the survivor count under setting [2] is recorded as 0 of 6.
Turning to `O=C1C=CC(=Nc2ccc3c(c2)C(Br)c2ccccc2-3)O1` (configuration not stated), for the setting “dose: 6.25 mg/kg/injection, schedule: Q01DX009 (ip), vehicle: saline with Tween-80”, the T/C is 127 % of control. Besides, the survivor count under setting [1] was 3 of 6.
